Source: publication PMC7261011
These are yes or no findings as the source states them, for the method shown. In cells and extracts the contact can be indirect. Binding can be weak; no strength is given.

By UniProt entry, the sequences of proteins in these tests, tags left out. Where a name states a change or a piece, a line headed by the entry shows the natural chain unless it says otherwise.
UniProt Q9D9P8: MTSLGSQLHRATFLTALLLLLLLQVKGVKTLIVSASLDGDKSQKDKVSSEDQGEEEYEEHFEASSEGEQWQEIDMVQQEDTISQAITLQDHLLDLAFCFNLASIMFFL

Biological target: mouse SOF1 (sperm-oocyte fusion required 1) expressed in HEK293T cells (SOF1-1D4) (mouse) (UniProt Q9D9P8)
Experiment: co-IP; lysates of HEK293T cells coexpressing IZUMO1 and each of the other proteins; antibody-conjugated Protein A/G magnetic beads, 1 h at 4 °C; lysis buffer 50 mM Tris pH 7.5, 150 mM NaCl, 1% Triton X-100, 10% glycerol, 1 mM DTT; Western blot

B1: recombinant mouse IZUMO1 expressed in HEK293T cells (IZUMO1-mCherry) (protein, UniProt Q9D9J7 22-397)
chain: CIKCDQFVTDALKTFENTYLNDHLPHDIHKNVMRMVNHEVSSFGVVTSAEDSYLGAVDENTLEQATWSFLKDLKRITDSDLKGELFIKELLWMLRHQKDIFNNLARQFQKEVLCPNKCGVMSQTLIWCLKCEKQLHICRKSLDCGERHIEVHRSEDLVLDCLLSWHRASKGLTDYSFYRVWENSSETLIAKGKEPYLTKSMVGPEDAGNYRCVLDTINQGHATVIRYDVTVLPPKHSEENQPPNIITQEEHETPVHVTPQTPPGQEPESELYPELHPELYPELIPTVAQNPEKKMKTRLLILLTLGFVVLVASIIISVLHFRKVSAKLKNASDEVKPTASGSKSDQSLSQQMGLKKASQADFNSDYSGDKSEATEN
B1 was tested. Which binding did it give?
Its binding is “binds”.
